The target of the test is EGFR (endogenous, A549 cells, EGFR WT) (human (endogenous in A549)) (UniProt P00533). Nature of the test: co-IP; A549 treated with DPBA (6 μM) for 3, 6 and 12 h; lysate; EGFR immunoprecipitated with biotinylated cetuximab at 4 °C overnight and avidin agarose beads; Western blot. On the technique in general: Immunoblotting shows a protein as a band on a membrane.

Results are given in words; binding and its absence hold for the method and conditions named. In cells and extracts the contact can be indirect. Some binding calls cover weakened binding; strength is not graded here.

B1: flotillin-1 (protein, UniProt O75955 1-427)
chain: MFFTCGPNEAMVVSGFCRSPPVMVAGGRVFVLPCIQQIQRISLNTLTLNVKSEKVYTRHGVPISVTGIAQVKIQGQNKEMLAAACQMFLGKTEAEIAHIALETLEGHQRAIMAHMTVEEIYKDRQKFSEQVFKVASSDLVNMGISVVSYTLKDIHDDQDYLHSLGKARTAQVQKDARIGEAEAKRDAGIREAKAKQEKVSAQYLSEIEMAKAQRDYELKKAAYDIEVNTRRAQADLAYQLQVAKTKQQIEEQRVQVQVVERAQQVAVQEQEIARREKELEARVRKPAEAERYKLERLAEAEKSQLIMQAEAEAASVRMRGEAEAFAIGARARAEAEQMAKKAEAFQLYQEAAQLDMLLEKLPQVAEEISGPLTSANKITLVSSGSGTMGAAKVTGEVLDILTRLPESVERLTGVSISQVNHKPLRTA
For the molecule B1, the binding result is “binds”.

These data come from PMC7544691, “Discovery of a novel EGFR ligand DPBA that degrades EGFR and suppresses EGFR-positive NSCLC growth” (Signal Transduction and Targeted Therapy, 2020).
